Test results as given in patent US9827208B2, “Antioxidant dietary supplement compositions and methods for maintaining healthy skin” (priority 2004, dated 2017).
For at least one compound, name, drawing or mass did not settle the structure.

Experiments:
[1] = Digestive tolerance of ingested high quantities of antioxidants; type: in vivo; conditions: supplementing the antioxidant intake
[2] = tested on: skin conditions arising from acne and rosacea; test: Effect of oral antioxidant/lycopene compositions on skin conditions (acne, rosacea symptoms); type: in vivo, human; conditions: oral administration, methods of treatment of the invention

| Structure (SMILES) | alleviation of digestive system problems caused by antioxidant intake [1] | effectiveness in improving skin conditions / suppressing skin ailments [2] |
| --- | --- | --- |
| C[C@@H]1O[C@@H](OC[C@H]2O[C@@H](Oc3c(-c4ccc(O)c(O)c4)oc4cc(O)cc(O)c4c3=O)[C@H](O)[C@@H](O)[C@@H]2O)[C@H](O)[C@H](O)[C@H]1O [rutin] | can alleviate these problems | – |
| O=C(O)c1cc(O)c(O)c(O)c1 [gallic acid, trihydroxy benzoic acid] | – | more effective than vitamin C |
